The record followed here is PMC2949800.

Amino acid sequences for entries named in this document (tags omitted).
UniProt P31314, whole entry T247A: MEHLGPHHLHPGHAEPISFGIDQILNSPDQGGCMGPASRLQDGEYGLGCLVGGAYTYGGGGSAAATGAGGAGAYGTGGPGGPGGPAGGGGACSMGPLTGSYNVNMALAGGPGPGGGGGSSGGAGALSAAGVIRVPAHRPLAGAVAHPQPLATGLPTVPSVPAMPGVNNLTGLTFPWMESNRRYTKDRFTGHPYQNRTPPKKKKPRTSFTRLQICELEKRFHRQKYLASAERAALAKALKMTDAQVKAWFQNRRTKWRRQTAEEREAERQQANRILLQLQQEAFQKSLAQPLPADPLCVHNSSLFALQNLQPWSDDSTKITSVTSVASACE
UniProt P31314, whole entry T247E: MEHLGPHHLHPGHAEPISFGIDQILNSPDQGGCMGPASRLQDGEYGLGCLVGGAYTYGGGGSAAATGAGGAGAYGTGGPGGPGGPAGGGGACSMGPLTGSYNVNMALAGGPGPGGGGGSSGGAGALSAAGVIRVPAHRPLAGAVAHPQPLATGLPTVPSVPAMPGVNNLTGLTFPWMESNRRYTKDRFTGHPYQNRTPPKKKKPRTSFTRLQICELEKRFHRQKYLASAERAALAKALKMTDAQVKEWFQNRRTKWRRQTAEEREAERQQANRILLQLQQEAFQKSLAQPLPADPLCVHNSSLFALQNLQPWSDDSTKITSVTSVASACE

The exact form of at least one protein or probe is not confirmed. Where cells or extracts were used, other partners may take part. For some assays here: Negatives hold for the conditions tested.

One data set has as its target FLAG-HOX11 T247A (UniProt P31314). As to the kind of experiment: EMSA. Particulars: 10 mM Tris-HCl pH 7.6, 50 mM NaCl, 1 mM EDTA, 5% glycerol, 6 ug nuclear extract in 10 ul, room temperature 30 min; 6% native PAGE, 0.5x TBE, EMSA stain; protein in an extract; label: none (gel stained). (Mobility shift assays separate free from complexed probe on a gel.)
For another data set, the target named is FLAG-HOX11 T247E (UniProt P31314). As to the kind of experiment: EMSA. To be noted: 10 mM Tris-HCl pH 7.6, 50 mM NaCl, 1 mM EDTA, 5% glycerol, 6 ug nuclear extract in 10 ul, room temperature 30 min; 6% native PAGE, 0.5x TBE, EMSA stain; protein in an extract; label: none (gel stained).

“TCCATCCCAGTAATAAGTGTTTT (double strand) [CCNB1 promoter TAAGTG probe]”: the binding result with FLAG-HOX11 T247A is recorded as “binds”; with FLAG-HOX11 T247E, “no binding”.
